Data from paper doi:10.1101/2020.01.03.894170.
No constants are given. Whether binding was seen depends on the method and setting. For some assays here: Binding seen in cells or lysates may run through a third protein. Some entries that bind do so weakly or less than the wild type. For some assays here: Sequences can lack the tags named with a protein.

Protein sequences, listed by entry. Tags and fused reporters are not part of them.
UniProt Q9SZI2: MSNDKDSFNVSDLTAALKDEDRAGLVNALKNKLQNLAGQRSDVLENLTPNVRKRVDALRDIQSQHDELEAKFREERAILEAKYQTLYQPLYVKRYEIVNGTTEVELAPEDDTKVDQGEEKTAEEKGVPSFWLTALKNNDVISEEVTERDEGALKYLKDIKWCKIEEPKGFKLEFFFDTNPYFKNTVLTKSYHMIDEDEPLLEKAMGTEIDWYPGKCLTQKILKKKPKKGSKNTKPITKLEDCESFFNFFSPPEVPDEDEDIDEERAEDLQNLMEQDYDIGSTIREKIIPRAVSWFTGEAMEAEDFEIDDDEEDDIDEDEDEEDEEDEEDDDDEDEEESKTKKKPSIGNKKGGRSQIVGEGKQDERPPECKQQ
UniProt Q94K07: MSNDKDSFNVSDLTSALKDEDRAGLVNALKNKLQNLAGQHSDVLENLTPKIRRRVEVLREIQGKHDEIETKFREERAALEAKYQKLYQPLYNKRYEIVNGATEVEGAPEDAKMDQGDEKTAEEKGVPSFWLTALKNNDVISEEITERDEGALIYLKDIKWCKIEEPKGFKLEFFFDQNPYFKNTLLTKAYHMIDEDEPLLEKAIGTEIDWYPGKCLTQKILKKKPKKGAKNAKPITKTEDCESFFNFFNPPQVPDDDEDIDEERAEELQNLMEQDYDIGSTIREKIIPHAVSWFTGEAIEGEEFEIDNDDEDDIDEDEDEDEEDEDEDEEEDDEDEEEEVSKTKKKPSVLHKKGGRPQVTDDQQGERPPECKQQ

B1: ANTI-… FUNCTION 1 (ASF1a), yeast two-hybrid fusion, Q9C9M6 1-196 (protein)
chain: MSAIKITNVAVLHNPAPFVSPFQFEISYECLNSLKDDLEWKLIYVGSAEDETYDQLLESVLVGPVNVGNYRFVFQADPPDPSKIQEEDIIGVTVLLLTCSYMGQEFLRVGYYVNNDYEDEQLKEEPPTKVLIDKVQRNILSDKPRVTKFPIDFHPEEEQTAATAAPPEQSDEQQPNVNGEAQVLPDQSVEPKPEES
B2: ASF1a (BiFC fusion), Q9C9M6 1-196 (protein)
chain: B1 chain

Key:
[1] = target: NUCLEOSOME ASSEMBLY PROTEIN 1;1 (NAP1;1), yeast two-hybrid fusion (Arabidopsis thaliana) (UniProt Q9SZI2); assay: two-hybrid
[2] = target: T1, FASCIATA1 (FAS1), yeast two-hybrid fusion (Arabidopsis thaliana) (UniProt Q9SXY0); assay: two-hybrid
T1 sequence: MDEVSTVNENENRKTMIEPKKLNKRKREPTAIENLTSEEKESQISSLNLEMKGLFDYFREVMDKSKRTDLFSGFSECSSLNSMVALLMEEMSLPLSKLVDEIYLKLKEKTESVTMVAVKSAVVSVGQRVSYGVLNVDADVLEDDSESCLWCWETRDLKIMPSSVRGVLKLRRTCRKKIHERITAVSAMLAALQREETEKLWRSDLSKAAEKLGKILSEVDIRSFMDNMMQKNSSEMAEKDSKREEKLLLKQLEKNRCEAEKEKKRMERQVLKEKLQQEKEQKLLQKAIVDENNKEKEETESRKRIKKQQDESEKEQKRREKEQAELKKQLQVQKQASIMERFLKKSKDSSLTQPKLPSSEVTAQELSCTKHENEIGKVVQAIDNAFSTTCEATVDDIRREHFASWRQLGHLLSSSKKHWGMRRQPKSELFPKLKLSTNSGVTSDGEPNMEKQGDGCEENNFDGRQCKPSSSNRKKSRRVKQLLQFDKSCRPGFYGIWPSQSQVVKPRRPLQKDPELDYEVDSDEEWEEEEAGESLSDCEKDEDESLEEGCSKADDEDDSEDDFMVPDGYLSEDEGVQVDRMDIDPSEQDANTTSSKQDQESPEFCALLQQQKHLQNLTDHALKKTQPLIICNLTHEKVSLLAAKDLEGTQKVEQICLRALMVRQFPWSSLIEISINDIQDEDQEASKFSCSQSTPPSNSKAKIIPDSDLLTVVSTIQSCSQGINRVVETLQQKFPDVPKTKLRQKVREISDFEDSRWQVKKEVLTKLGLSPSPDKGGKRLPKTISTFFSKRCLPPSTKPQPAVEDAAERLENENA

[3] = target: T2, nYFP/FAS1 (BiFC fusion) (Arabidopsis thaliana) (UniProt Q9SXY0); assay: split reporter
T2 sequence: T1 sequence

[4] = target: cYFP/NAP1;1 (BiFC fusion) (Arabidopsis thaliana) (UniProt Q9SZI2); assay: split reporter
[5] = target: T3, FASCIATA1 (FAS1), yeast two-hybrid fusion (Arabidopsis thaliana), Q9SXY0; assay: two-hybrid; settings: remark: other sources report otherwise
T3 chain: T1 sequence

[6] = target: T4, nYFP/FAS1 (BiFC fusion) (Arabidopsis thaliana), Q9SXY0; assay: split reporter; settings: remark: other sources report otherwise
T4 chain: T1 sequence

Row | Molecule | binding [2] | binding [3] | also measured
1 | NUCLEOSOME ASSEMBLY PROTEIN 1;1 (NAP1;1), yeast two-hybrid fusion (from UniProt Q9SZI2 1-372) | no binding |  | binding [1]: binds
2 | NUCLEOSOME ASSEMBLY PROTEIN 1;3 (NAP1;3), yeast two-hybrid fusion (from UniProt Q94K07 1-374) | no binding |  | 
3 | cYFP/NAP1;1 (BiFC fusion) (from UniProt Q9SZI2 1-372) |  | no binding | binding [4]: binds
4 | cYFP/NAP1;3 (BiFC fusion) (from UniProt Q94K07 1-374) |  | no binding | 
5 | B1 |  |  | binding [5]: binds
6 | B2 |  |  | binding [6]: binds
